Literature values in patent publication US11744842B2, “Methods for the effective treatment of metastatic cancer” (General Oncology, Inc., priority 2012, dated 2023).
At least one structure is not confirmed: it was looked up by name or label, or the drawing left a doubt.

Tested on: metastatic melanoma
Settings: patients with metastatic melanoma; cited from earlier work

CCCS(=O)(=O)Nc1ccc(F)c(C(=O)c2c[nH]c3ncc(-c4ccc(Cl)cc4)cc23)c1F [Vemurafenib]
complete response rate: 1%
